# Laboratory results published in PubChem BioAssay AID1347423 (Functional Genomics Laboratory (NCATS/FGL), 2020).
# Among all 52,000 sequences or so, about 210 (0.4%) were called active.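 Rule for the calls: active = gene whose silencing raises cell survival under the drug, median off-target-corrected z-score across its silencing RNAs 2 or more; inactive = the rest.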 This is one part of the list.
# Test: Resistance to Poly (ADP-Ribose) Polymerase inhibitor: Gene Identification via Genome-wide siRNA Screen
# Conditions: mouse BRCA2 R2336H ES cells, olaparib, CellTiter-Glo viability; stronger effect = higher value
# Summary of the method: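 Genome-wide siRNA screen (3 siRNAs/gene, 20 nM) in mouse ES cells carrying hypomorphic BRCA2 R2336H; olaparib 500 nM added 48 h post-transfection, CellTiter-Glo viability 72 h later. Normalized to plate-median negative control; MAD z-scores, gene median, seed-adjusted.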
row,Sequence,z-score
1,GGCCAGUAAGACAGAUUAUTT against Rabl3,inactive: -0.632
2,CCUGGUACCUCGAUUCCAUTT against 9230102I19Rik,inactive: -0.113
3,GUACCUCAUGGGCAAGUUCTT against Foxq1,inactive: -0.437
4,GGCCCAUUUUGGUGUGCAUTT against Hyal3,inactive: -0.6
5,CCUGAUUUGAAGAACAAAATT against Galnt11,inactive: -0.0763
6,GGCUGUGACUUUUGAUCUATT against 2310042G06Rik,inactive: -0.719
7,GGAGAGAUAAUCCAUAAUATT against 2700007P21Rik,inactive: -0.00113
8,GCAAUUUGCUCAUCUCUAATT against Dcc,inactive: -1.96
9,GGUUUCAGACUCCAUGAGATT against Gyg1,inactive: 0.522
10,GGGAAAAGUUUUAAAGAGCTT against Il31ra,inactive: 0.947
11,GCAGAAAAAGGAAGGCCACTT against Xlr3b,inactive: 0.727
12,CCGUGGUACCAUCAAUGACTT against 2310044P18Rik,inactive: 0.691
13,GGCAGAGAGUCUACAUAUGTT against Bcar3,inactive: -2.39
14,GCGCAGUGAAUCAAAUGUUTT against Asrgl1,inactive: -0.777
15,GCCAUAAAACAGAAUCUCATT against 4930563P21Rik,inactive: 0.642
16,CCGAAUAUCGAGUUCCCAATT against 9130012D09Rik,inactive: -0.782
17,GGGUUAUGGUAGAUUAUCUTT against A830007P12Rik,inactive: -0.954
18,GCCCAAGUAGCUCUACAGATT against Zbtb3,inactive: -1.29
19,GGCCUUUGAUGACUUCAUCTT against Cacna1h,inactive: 1.37
20,GGUUACUCCUUUUUCAAUGTT against Elf5,inactive: -0.0212
21,GGCCUGAAGAAAAAAACCCTT against Gas6,inactive: 1.22
22,CCCGGUCUACAGUUAUUCGTT against Hlxb9,inactive: -1.42
23,GCAGAUGCUUCGGUGAAAATT against Defb15,inactive: -0.819
24,GCGGAAAGAAUCUUGGGAATT against Bcas1,inactive: -1.99
25,CCCUCAUACAGAAUUAGUGTT against Zcchc14,inactive: 0.0824
26,GGAAAAGACGGAGAGGCAUTT against Hey1,inactive: 0.821

row,Sequence,z-score
1,GGUCAUCAAGCAGUUUCGCTT against Coq7,inactive: -0.395
2,GGAAAAGGUUUAUUUUGCUTT against Mtmr6,inactive: 0.602
3,GGUGUCCAACAAGCUCAAGTT against F8a,inactive: -2.33
4,GGGACUAGACUUCUUCGGATT against Ddx52,inactive: -0.0893
5,GGAUCUGUUCAGCAAGUCUTT against Cpne6,inactive: 0.471
6,GAACUACCUGUGUAAACCUTT against AA407659,inactive: -0.0494
7,GGGAUUGUUUCAAGACAAUTT against 2-Sep,inactive: -0.782
8,GGAAUAGGUCUAGCUGUUGTT against Olfr593,inactive: 0.391
9,UCCUUUCUAAUAUCCUCCATT against Olfr912,inactive: 2.09
10,CCCUCUAUCCUUAAACCAUTT against 0610007P14Rik,inactive: -2.21
11,GCUCUACUGCUUCCUUGUUTT against Olfr973,inactive: -2.32
12,CCCAAGGUGAACAUAAUCUTT against Stard7,inactive: -2.2
13,GGCCUUUCAAGAAGCCAAATT against C430004E15Rik,inactive: -0.175
14,GGUCCAUUCGGUACAAAAATT against 4930452B06Rik,inactive: 0.295
15,GGGUUAAUGACUAAAAUGATT against H13,inactive: 0.715
16,GGCUAUGAUGUUCACAAAUTT against Cog4,inactive: 0.0137
17,GGGACUUAGACACAGGAAGTT against Pcdhb15,inactive: -2.46
18,GGCAUGAACAACAUUACCATT against BC052046,inactive: 0.595
19,CCUCAUGGCCAAUUUGCACTT against BC023181,inactive: 1.13
20,GGAUGUAUUUUGGAGAACGTT against 5730508B09Rik,inactive: -0.0281
21,GCACAUGUCAGACACGGCATT against Hdc,inactive: -0.185
22,CCAGAAGUAUAGGACGCACTT against 2310075M15Rik,inactive: -0.81
23,GGCUUUCAGGUAUUAUAAGTT against Icmt,inactive: 0.753
24,GGAGUUUCUAACUAAAUUCTT against 4932411N23Rik,inactive: 1.7
25,CGGUGUACGAGUUAGAGAATT against Crybb3,inactive: 0.762
26,GGAUCUUAGCAUGUCAACATT against Zfp330,inactive: 1.07

row,Sequence,z-score
1,GGAGCUGUCCAGGUUUAUUTT against 2400006A19Rik,inactive: -3.32
2,CCCAAGACUCGUACACGCATT against Ggn,inactive: 1.7
3,GGCGAAAAGCCUUUUCCCUTT against Zic1,inactive: 0.506
4,GGUCGGAGUACAGUUCAAATT against Mum1,inactive: 0.377
5,GCCUUGAUAAUGUACGGCATT against Blvra,inactive: -0.193
6,GCCCUGAGACCACGAUAUUTT against AF067063,inactive: -0.377
7,GGAGCUGUGACUAGGAAUGTT against Abo,inactive: -1.16
8,GCUGAAUUCUCCAACCAACTT against 1190002H23Rik,inactive: -0.487
9,GCGGUUUCUUCGAGAAACUTT against 9130404D08Rik,inactive: 0.66
10,CGACAACCUCAACAACGUGTT against Tom1,inactive: -0.364
11,CCACAUGGCUAUUCACUAUTT against Spata7,inactive: 1.06
12,GGAAUGAAAAAGUUCUACATT against Dnajc10,inactive: -1.71
13,GGUGGAGUCUGAACUUAAUTT against Nfatc4,inactive: -0.17
14,GGCUUACCUGAGGAAUGCUTT against BC003479,inactive: -0.626
15,GGCCCAAGGAUCAAUUUAUTT against 2700019D07Rik,inactive: 0.164
16,GGCCUACUUGGAUGUGGACTT against Rtn3,inactive: -0.343
17,GCUCAGACAUGUUCUUACCTT against BC037527,inactive: 0.547
18,CCCACGAGGGAUAUAUCUGTT against Cd3d,inactive: -1.16
19,CCAAAGUAGAUGUGACCUATT against 2310015N21Rik,inactive: -0.897
20,GGACUGUCAGUGAUGACUCTT against Hes2,inactive: 0.523
21,GGGUAAUUUUAGCAGCGAGTT against Btbd9,inactive: 0.0319
22,GGAAUUCCUUACCUUCUUATT against Cyp2c65,inactive: -0.374
23,GGCUCUCAGUGCCAUCAUUTT against 2310004N11Rik,inactive: -2.69
24,GCAGUUGAAUAUCAGACUGTT against Obox5,inactive: -2.38
25,GGCUUCUAAUCAGAUCAGCTT against D230037D09Rik,inactive: -0.177
26,GCUCUUACAUAGAACUUUGTT against Tpbg,inactive: -0.882

# Rewritten with bars between the fields: part of the list above.
row | Sequence | z-score
1 | GGCCAGUAAGACAGAUUAUTT against Rabl3 | inactive: -0.632
2 | CCUGGUACCUCGAUUCCAUTT against 9230102I19Rik | inactive: -0.113
5 | CCUGAUUUGAAGAACAAAATT against Galnt11 | inactive: -0.0763
6 | GGCUGUGACUUUUGAUCUATT against 2310042G06Rik | inactive: -0.719
10 | GGGAAAAGUUUUAAAGAGCTT against Il31ra | inactive: 0.947
13 | GGCAGAGAGUCUACAUAUGTT against Bcar3 | inactive: -2.39
14 | GCGCAGUGAAUCAAAUGUUTT against Asrgl1 | inactive: -0.777
16 | CCGAAUAUCGAGUUCCCAATT against 9130012D09Rik | inactive: -0.782
17 | GGGUUAUGGUAGAUUAUCUTT against A830007P12Rik | inactive: -0.954
19 | GGCCUUUGAUGACUUCAUCTT against Cacna1h | inactive: 1.37
22 | CCCGGUCUACAGUUAUUCGTT against Hlxb9 | inactive: -1.42
24 | GCGGAAAGAAUCUUGGGAATT against Bcas1 | inactive: -1.99
25 | CCCUCAUACAGAAUUAGUGTT against Zcchc14 | inactive: 0.0824
3 | GGUGUCCAACAAGCUCAAGTT against F8a | inactive: -2.33
8 | GGAAUAGGUCUAGCUGUUGTT against Olfr593 | inactive: 0.391
10 | CCCUCUAUCCUUAAACCAUTT against 0610007P14Rik | inactive: -2.21
11 | GCUCUACUGCUUCCUUGUUTT against Olfr973 | inactive: -2.32
14 | GGUCCAUUCGGUACAAAAATT against 4930452B06Rik | inactive: 0.295
15 | GGGUUAAUGACUAAAAUGATT against H13 | inactive: 0.715
16 | GGCUAUGAUGUUCACAAAUTT against Cog4 | inactive: 0.0137
17 | GGGACUUAGACACAGGAAGTT against Pcdhb15 | inactive: -2.46
20 | GGAUGUAUUUUGGAGAACGTT against 5730508B09Rik | inactive: -0.0281
23 | GGCUUUCAGGUAUUAUAAGTT against Icmt | inactive: 0.753
4 | GGUCGGAGUACAGUUCAAATT against Mum1 | inactive: 0.377
9 | GCGGUUUCUUCGAGAAACUTT against 9130404D08Rik | inactive: 0.66
12 | GGAAUGAAAAAGUUCUACATT against Dnajc10 | inactive: -1.71
13 | GGUGGAGUCUGAACUUAAUTT against Nfatc4 | inactive: -0.17
16 | GGCCUACUUGGAUGUGGACTT against Rtn3 | inactive: -0.343
20 | GGACUGUCAGUGAUGACUCTT against Hes2 | inactive: 0.523
24 | GCAGUUGAAUAUCAGACUGTT against Obox5 | inactive: -2.38
26 | GCUCUUACAUAGAACUUUGTT against Tpbg | inactive: -0.882

# The list goes on.

row,Sequence,z-score
1,GGUGGAGUUUCUGAAACAGTT against Supt16h,inactive: -3.27
2,GCACUUACCAGUAUGCGCUTT against Ppp1r16b,inactive: 1.92
3,GCGCAAUAAUCAGACGGUUTT against Zhx2,inactive: -2.08
4,CCUUUGAACCUCUAACUUUTT against Xpnpep1,inactive: -0.177
5,GGAGCCAGCUCUCAAUGAATT against Psme1,inactive: -2.48
6,GGAAAGUGGUGCAUGACUATT against Sfxn1,inactive: 0.484
7,CCACUGUGUGACAUUAAAGTT against Metap2,inactive: -0.389
8,GCACACAUGUAGUCUUAUATT against Harsl,inactive: -0.274
9,GGACUUUGUAUAUUGGUUUTT against Ets2,inactive: -0.869
10,CCUUGUACAACAAUGGUGCTT against Git2,inactive: 0.014
11,GCAAAUCAUUUAGGACCCATT against 2600011E07Rik,inactive: -1.45
12,GCAGAUUUACCCUCUAUAATT against Peli2,inactive: 0.331
13,GGUGUCAGAACACAUCGCATT against Sepp1,inactive: 0.294
14,GGAAAAGUUCUUAAUGGAGTT against 5730453I16Rik,inactive: 1.08
15,GUUUGAGGACUUGGAGGUGTT against Znrf4,inactive: 0.882
16,GCUGUUACAGACCUGUUUCTT against 1500019G21Rik,inactive: 1.54
17,GGAAUACGAAGAGAUUAUATT against Zw10,inactive: -0.165
18,GAAGAUCCACUUCAUCGCCTT against Psmb10,inactive: -1.82
19,GGUGCUGAUGGGAGAUAGUTT against 1700010H22Rik,inactive: -0.146
20,CCACUUAAAAUUCAUUCCUTT against Arl6ip1,inactive: 1.22
21,GGACAAUGCUGUGACCUCUTT against Amn,inactive: -0.106
22,GGCCACUCUUCUAGUGCAUTT against BC037095,inactive: -0.471
23,UUAAGCCGCUUUUGAAGCUTT against Olfr1200,inactive: -1.52
24,GGCUGAUAAGGCUAAGUACTT against 5430432M24Rik,inactive: -0.887
25,GUUUUGGAACUUGUGAUGATT against Expi,inactive: 1.31
